Test results reported in paper doi:10.1101/2022.04.01.486731.
No constants are given. Whether binding was seen depends on the method and setting. Binding seen in cells or lysates may run through a third protein.

Target: T1, NIMA related kinase 1 (Nek1), Q96PY6
T1 chain: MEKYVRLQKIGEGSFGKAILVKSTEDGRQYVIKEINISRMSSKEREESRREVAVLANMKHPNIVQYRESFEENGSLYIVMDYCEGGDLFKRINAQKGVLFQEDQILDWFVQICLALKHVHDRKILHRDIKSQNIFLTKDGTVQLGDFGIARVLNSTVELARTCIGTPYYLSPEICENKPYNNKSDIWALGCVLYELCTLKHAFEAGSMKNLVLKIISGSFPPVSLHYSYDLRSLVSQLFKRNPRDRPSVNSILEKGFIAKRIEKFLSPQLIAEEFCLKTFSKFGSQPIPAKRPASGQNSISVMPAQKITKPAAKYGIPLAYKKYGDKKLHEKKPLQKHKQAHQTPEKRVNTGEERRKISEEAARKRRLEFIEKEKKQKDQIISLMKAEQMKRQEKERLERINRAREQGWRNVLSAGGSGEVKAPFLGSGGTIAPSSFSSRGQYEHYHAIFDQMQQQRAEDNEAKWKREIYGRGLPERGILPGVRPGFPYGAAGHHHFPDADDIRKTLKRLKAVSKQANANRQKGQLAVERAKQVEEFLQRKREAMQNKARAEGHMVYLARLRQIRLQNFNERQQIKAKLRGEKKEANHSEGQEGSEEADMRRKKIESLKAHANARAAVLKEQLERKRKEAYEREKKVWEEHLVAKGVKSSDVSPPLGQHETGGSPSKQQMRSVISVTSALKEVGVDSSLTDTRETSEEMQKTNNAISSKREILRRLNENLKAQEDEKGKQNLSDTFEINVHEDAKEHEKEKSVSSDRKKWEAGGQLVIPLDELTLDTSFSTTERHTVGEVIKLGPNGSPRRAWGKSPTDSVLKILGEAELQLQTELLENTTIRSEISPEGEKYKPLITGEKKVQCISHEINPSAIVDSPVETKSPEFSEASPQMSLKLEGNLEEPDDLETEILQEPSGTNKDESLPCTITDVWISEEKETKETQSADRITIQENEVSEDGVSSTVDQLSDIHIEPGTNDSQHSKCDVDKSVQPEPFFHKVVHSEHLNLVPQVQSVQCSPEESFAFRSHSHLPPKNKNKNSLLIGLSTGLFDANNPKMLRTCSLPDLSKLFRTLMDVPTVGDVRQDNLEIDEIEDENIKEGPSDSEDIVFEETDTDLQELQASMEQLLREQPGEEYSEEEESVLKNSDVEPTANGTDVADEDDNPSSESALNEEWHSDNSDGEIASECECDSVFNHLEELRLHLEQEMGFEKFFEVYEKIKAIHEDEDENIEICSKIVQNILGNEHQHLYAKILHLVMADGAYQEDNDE
Assay: co-IP
Conditions: remark: other sources report otherwise

binding: no binding
B1: Rad54, Q92698 1-747 (protein)
chain: MRRSLAPSQLAKRKPEGRSCDDEDWQPGLVTPRKRKSSSETQIQECFLSPFRKPLSQLTNQPPCLDSSQHEAFIRSILSKPFKVPIPNYQGPLGSRALGLKRAGVRRALHDPLEKDALVLYEPPPLSAHDQLKLDKEKLPVHVVVDPILSKVLRPHQREGVKFLWECVTSRRIPGSHGCIMADEMGLGKTLQCITLMWTLLRQSPECKPEIDKAVVVSPSSLVKNWYNEVGKWLGGRIQPLAIDGGSKDEIDQKLEGFMNQRGARVSSPILIISYETFRLHVGVLQKGSVGLVICDEGHRLKNSENQTYQALDSLNTSRRVLISGTPIQNDLLEYFSLVHFVNSGILGTAHEFKKHFELPILKGRDAAASEADRQLGEERLRELTSIVNRCLIRRTSDILSKYLPVKIEQVVCCRLTPLQTELYKRFLRQAKPAEELLEGKMSVSSLSSITSLKKLCNHPALIYDKCVEEEDGFVGALDLFPPGYSSKALEPQLSGKMLVLDYILAVTRSRSSDKVVLVSNYTQTLDLFEKLCRARRYLYVRLDGTMSIKKRAKVVERFNSPSSPDFVFMLSSKAGGCGLNLIGANRLVMFDPDWNPANDEQAMARVWRDGQKKTCYIYRLLSAGTIEEKIFQRQSHKKALSSCVVDEEQDVERHFSLGELKELFILDEASLSDTHDRLHCRRCVNSRQIRPPPDGSDCTSDLAGWNHCTDKWGLRDEVLQAAWDAASTAITFVFHQRSHEEQRGLR
